Assay: Mouse skin graft, internal controls (weight, blood cholesterol)
Format: in vivo

CC(C)c1c(C(=O)Nc2ccccc2)c(-c2ccccc2)c(-c2ccc(F)cc2)n1CC[C@@H](O)C[C@@H](O)CC(=O)O [Atorvastatin]
blood cholesterol levels (total cholesterol, triglycerides) (high statin dose 100 mg/kg/day in food): slight decrease | blood cholesterol levels (total cholesterol, triglycerides) (low statin dose 1 mg/kg/day in food, vs control): did not change

Reference: patent US20070003636A1, “Statins (HMG-COA reductase inhibitors) as a novel type of immunomodulator, immunosuppressor and anti-inflammatory agent” (priority 2003, published 2007)
